The record followed here is PubChem BioAssay AID463205 (Broad Institute, 2010).

The term AC50 denotes the concentration at which the activity in the assay is half-maximal.

Molecules are shown by their SMILES. The campaign covered roughly 2,400 compounds. About 20 (0.8%) were called active.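 How the source made its calls: active means AC50 no more than ten times the highest tested concentration, or full inhibition at every dose giving a flat fit (cut at about 30 µM in these data); inconclusive means flat fit with activity between 30% and 70%, or poor-quality invalid fit; inactive means AC50 more than ten times the top tested dose.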 Some of the results follow.

The assay is described as follows: inhibitors of ADP-Glo detection reagents, dose response, artefact control for GSK-3a inhibitor project, biochemical, luminescence, cell-free, homogeneous (AID 463205).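 Further: kinase-free counter-screen against the ADP-Glo detection reagents only; potency is for inhibitors that reduce the luminescence signal.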 The conditions noted are these: 5 uM ADP.
Take `Oc1cccc(Nc2c3ccccc3nc3ccccc23)c1`: the AC50 is inactive: > 30 µM.

With `Cc1cc(C(C#N)c2cccc(Cl)c2)n2ncnc2n1` (centres undefined), the AC50 is inactive: > 30 µM.

`COc1ccc(-c2cc(C(=O)N3CCN(c4ccccc4OC)CC3)no2)cc1`: the AC50 was inactive: > 30 µM.

Take `COc1ccc(NC(=O)Nc2ccc(F)cc2)c(C)c1`: the AC50 was inactive: > 30 µM.

Regarding `CNC(=O)CSc1nnc(-c2ccco2)n1-c1cccc(OC)c1`, the AC50 was inactive: > 30 µM.

As for `O=C(Nc1ccc(Cl)cn1)c1cccc(S(=O)(=O)N2CCOCC2)c1`, the AC50 was inactive: > 30 µM.

With `CN1/C(=C\C=C(C#N)C#N)C(C)(C)c2ccccc21`, the AC50 is inactive: > 30 µM.

For `CNc1cc(N2CCCC2)ccc1[N+](=O)[O-]`, the AC50 is inactive: > 30 µM.

`COc1ccc(Br)cc1C(=O)Nc1cccc(NC(=O)c2ccco2)c1`: the AC50 was inactive: > 30 µM.

In the case of `CC1(C)CC(=O)C(C2c3ccccc3Oc3ccccc32)C(=O)C1`, the AC50 is inactive: > 30 µM.

As to `COc1ccc2c3c(cccc13)OC2=O`, the AC50 was inactive: > 30 µM.

`CN(C(=O)/C=C/c1ccc2c(c1)OCO2)c1ccccc1`: the AC50 was inactive: > 30 µM.

In the case of `Cc1cc(=O)[nH]c2cc(O)ccc12`, the AC50 is inactive: > 30 µM.

As to `CS(=O)(=O)N1CCN(c2ccccc2NC(=O)c2cccs2)CC1`, the AC50 is inactive: > 30 µM.

Turning to `CCCc1c(C(=O)N/N=C/C(C)=C/c2ccco2)nnn1-c1nonc1N`, the AC50 was inactive: > 30 µM.

For `O=C(Nc1ccsc1C(=O)O)c1ccccc1`, the AC50 is inactive: > 30 µM.

Take `COc1cc(C2CC(=O)N3CN(Cc4ccccc4)CSC3=C2C#N)ccc1OCc1ccccc1` (centres undefined): the AC50 is inactive: > 30 µM.

Take `O=C(c1cccnc1NCc1ccccc1)N1CCOCC1`: the AC50 is inactive: > 30 µM.

With `CCN1CCN(c2nc(Nc3cccc(F)c3)nc(N)c2[N+](=O)[O-])CC1`, the AC50 was inactive: > 30 µM.

Take `COc1ccc(C(=O)Nc2nc(C)cc(C)n2)cc1`: the AC50 was inactive: > 30 µM.

Turning to `CNc1nnc(-c2cc3ccccc3oc2=O)s1`, the AC50 is inactive: > 30 µM.

For the molecule `CCOC(=O)c1cc[nH]c1C`, the AC50 is inactive: > 30 µM.

In the case of `COCC(O)CSc1nc(C)[nH]c1[N+](=O)[O-]` (centres undefined), the AC50 was inactive: > 30 µM.

Regarding `Cc1nc(NC(=O)c2ccccc2)sc1Cc1ccc2c(c1)OCO2`, the AC50 is inactive: > 30 µM.

In the case of `COc1cc(/C=N/NC(=O)c2nnn(-c3nonc3N)c2-c2cccs2)ccc1O`, the AC50 was inactive: > 30 µM.

For `CCCCOc1ccc(CSc2nc(C)[nH]c2[N+](=O)[O-])cc1[N+](=O)[O-]`, the AC50 was inactive: > 30 µM.

Turning to `Cc1ccc(CSc2nnc(SCC(=O)N/N=C/c3ccc(C(=O)O)cc3)s2)cc1`, the AC50 is inactive: > 30 µM.

With `Clc1ccc(-c2nc3ncccn3c2Nc2ccc3c(c2)OCO3)cc1`, the AC50 was inactive: > 30 µM.

On to `CCc1c(C)sc(NC(=O)C2CC2c2ccccc2)c1C(N)=O` (centres undefined), for which the AC50 is inactive: > 30 µM.

In the case of `COc1cc(C2c3sc(=O)[nH]c3SC3C(=O)N(c4ccc(C)cc4)C(=O)C32)ccc1O` (centres undefined), the AC50 was inactive: > 30 µM.

Turning to `Cc1ccc2cc(C#N)c(N3CCCN(C(=S)NCCCN(C)C)CC3)nc2c1`, the AC50 is inactive: > 30 µM.

For `COc1ccc(CCNC(=O)CSc2nc3[nH]ncc3c(=O)n2-c2ccc(Br)cc2)cc1OC`, the AC50 was inactive: > 30 µM.

As for `COc1cc(C2CC(=O)c3c([nH]c(C(=O)OCCOC(C)C)c3C)C2)cc(OC)c1OC` (centres undefined), the AC50 was inactive: > 30 µM.

`COc1ccc2cc(C(N)=O)c(=Nc3ccc(C)cc3)oc2c1`: the AC50 is inactive: > 30 µM.

For the molecule `COc1c2ccccc2nc2ccccc12`, the AC50 is inactive: > 30 µM.

Take `COCCCNC(=O)C(=O)NC1CCCCC1C` (centres undefined): the AC50 is inactive: > 30 µM.

Consider `CCC(C)[C@H](NC(=O)NCc1ccccc1Cl)C(=O)OC` (some centres undefined), for which the AC50 was inactive: > 30 µM.

`CCN(C(=O)CN1CCCCCC1)c1c(N)n(Cc2ccccc2)c(=O)[nH]c1=O`: the AC50 is inactive: > 30 µM.

For `C/C(=N\NC(=O)c1nnn(-c2nonc2N)c1CN(C)C)c1ccco1`, the AC50 was inactive: > 30 µM.

For the molecule `Cc1sc2ncnc(N3CCC(C(=O)Nc4ccc(S(N)(=O)=O)cc4)CC3)c2c1C`, the AC50 is inactive: > 30 µM.

On to `CCOC(=O)CC1COc2ccccc2N1C(=O)c1ccc(C)cc1` (centres undefined), for which the AC50 was inactive: > 30 µM.

For the molecule `CCSc1nc2c(c(=O)[nH]1)C(c1ccccn1)C1=C(CC(C)(C)CC1=O)N2` (centres undefined), the AC50 is inactive: > 30 µM.

For the molecule `CCCCN(CC)C(=O)c1oc2ccc(S(=O)(=O)N3CCCC3)cc2c1C`, the AC50 was inactive: > 30 µM.

On to `CN(C)c1cccc(C(=O)N/N=C/c2ccccc2F)c1`, for which the AC50 was inactive: > 30 µM.

Consider `Cc1cc(NC(=O)CCSc2nc(-c3ccco3)cc(C(F)(F)F)n2)n(-c2ccccc2)n1`, for which the AC50 was inactive: > 30 µM.

For the molecule `CCOC(=O)CN1CC23C=CC(O2)C(C(=O)O)C3C1=O` (centres undefined), the AC50 is inactive: > 30 µM.

As to `Cc1cc(=O)[nH]c2c(C)cc(S(=O)(=O)Nc3ccc(O)cc3)cc12`, the AC50 is inactive: > 30 µM.

Consider `Cc1ccc(OCC(=O)N2CCN(c3nnc(-c4ccccc4)c4ccccc34)CC2)cc1`, for which the AC50 was inactive: > 30 µM.

Turning to `CCN=C1S/C(=C/c2ccc(-c3ccc(Cl)cc3C(=O)O)o2)C(=O)N1CC`, the AC50 was inactive: > 30 µM.

As for `Cc1cccc(C(=O)O/N=C(\N)c2cccc([N+](=O)[O-])c2)c1`, the AC50 is inactive: > 30 µM.

On to `Cc1cnc(NC(=O)C2CC(=O)N(c3cccc(Cl)c3)C2)s1` (centres undefined), for which the AC50 was inactive: > 30 µM.

As to `CCN1C(=S)SC(=O)C1=C1C=C(C)N(Cc2ccco2)C(C)=C1`, the AC50 is inactive: > 30 µM.

Take `O=C(O)c1cccc(Nc2nc(-c3cccnc3)nc3ccccc23)c1`: the AC50 is inactive: > 30 µM.

As for `c1ccc2c(c1)CCc1c(-c3ccncc3)n[nH]c1-2`, the AC50 is inactive: > 30 µM.

For `CC1(C)CC(=O)C2=C(C1)Nc1nc(SCCN3CCOCC3)[nH]c(=O)c1C2c1cccs1` (centres undefined), the AC50 was inactive: > 30 µM.

With `CC(=O)c1c(O)cc(O)cc1CC(=O)O`, the AC50 is inactive: > 30 µM.

Regarding `O=C(COC(=O)c1ccc(F)cc1F)Nc1ccc(Cl)cn1`, the AC50 is inactive: > 30 µM.

Take `CCOC(=O)/C(C#N)=C/c1cn(CCC(=O)O)nc1-c1cccc(Br)c1`: the AC50 was inactive: > 30 µM.

On to `Cc1cccc(OCC(=O)NNC(=O)c2cc3ccccc3oc2=O)c1`, for which the AC50 is inactive: > 30 µM.

Turning to `CCCNc1nc(Cl)nc(Nc2ccc(Cl)cc2)n1`, the AC50 is inactive: > 30 µM.

Regarding `COc1ccc([C@H]2[C@H](C(=O)C(C)(C)C)N3N=Cc4ccccc4C3[C@]23N=C(c2ccccc2)OC3=O)cc1OC` (some centres undefined), the AC50 is inactive: > 30 µM.

As to `CCOC(=O)CSc1ncnc2c(C(=O)OCC)c3n(c12)CCC3`, the AC50 is inactive: > 30 µM.

For `Cc1ccc(C(=O)N2NC(c3ccc(F)cc3)C3C(=O)N(c4ccc(C)cc4)C(=O)C32)cc1` (centres undefined), the AC50 is inactive: > 30 µM.

As to `CC1CN(c2nc(N(C)c3ccccc3)nc(N)c2[N+](=O)[O-])CC(C)O1` (centres undefined), the AC50 was inactive: > 30 µM.

Take `O=C(O)Cn1c(=O)c2c3c(sc2n(Cc2ccc(Cl)cc2Cl)c1=O)CCCC3`: the AC50 was inactive: > 30 µM.

In the case of `C/C(=C/c1oc2ccc(O)cc2c1[N+](=O)[O-])N(C)C`, the AC50 was inactive: > 30 µM.

As for `COC(=O)c1cccc(Nc2nc(-c3cccnc3)nc3ccccc23)c1`, the AC50 was inactive: > 30 µM.

Regarding `COc1cccc(CCNC(=O)c2cc(COc3c(F)cccc3F)on2)c1`, the AC50 was inactive: > 30 µM.

Consider `COCCn1c(SCC(=O)Nc2cc(C)on2)nc2ccccc21`, for which the AC50 was inactive: > 30 µM.

On to `Cc1nc2ncnn2c(C)c1Cc1c(Cl)cccc1Cl`, for which the AC50 was inactive: > 30 µM.

With `O=c1[nH]ncc(N/N=C\c2cccs2)c1Cl`, the AC50 was inactive: > 30 µM.

For `CC(OC(=O)Cc1c[nH]c2ccccc12)C(=O)c1ccccc1` (centres undefined), the AC50 is inactive: > 30 µM.

As to `CC(=O)Nc1ccc2nsnc2c1`, the AC50 was inactive: > 30 µM.

In the case of `CC(/C=N/NC(=O)CSc1nc2ccccc2n1C)=C\c1ccco1`, the AC50 was inactive: > 30 µM.

In the case of `CCOC(=O)c1nnn(-c2nonc2N)c1-c1ccc(Cl)cc1`, the AC50 was inactive: > 30 µM.

Take `O=C(Nc1cccc(Cl)c1N1CCOCC1)c1ccc(Br)o1`: the AC50 is inactive: > 30 µM.

Consider `COc1ccccc1C(=O)Nc1nc(C)cc(C)n1`, for which the AC50 was inactive: > 30 µM.

With `COc1ccc(OC)c(/C=C2\S/C(=N/NC(=O)c3ccc4ccccc4c3)NC2=O)c1`, the AC50 is inactive: > 30 µM.

Regarding `COC(=O)c1oc2ccc(Br)cc2c1NC(=O)c1ccccc1`, the AC50 is inactive: > 30 µM.

On to `Cc1cccc(C)c1OCC(=O)N=Nc1c(O)[nH]c2ccc(Br)cc12`, for which the AC50 was inactive: > 30 µM.

Consider `CC(C)c1onc(C(=O)N(C)C2CCCCC2)c1[N+](=O)[O-]`, for which the AC50 was inactive: > 30 µM.

As for `COc1ccc(/C=N/NC(=O)CSCc2ccc([N+](=O)[O-])cc2)cc1OC`, the AC50 was inactive: > 30 µM.

`COc1ccc(CC(=O)Nc2ccc(-c3cn4ccccc4n3)cc2)cc1OC`: the AC50 was inactive: > 30 µM.

`C=CCNc1cc(N2CCCC2)ccc1[N+](=O)[O-]`: the AC50 was inactive: > 30 µM.

`Cc1cc(=O)[nH]c2c(C)c(Cl)ccc12`: the AC50 is inactive: > 30 µM.

With `Fc1ccc(Nc2ncnc3ccccc23)cc1`, the AC50 was inactive: > 30 µM.

Regarding `COc1ccc(C(=O)NCC(=O)N/N=C(C)\C=C\c2ccccc2)cc1OC`, the AC50 was inactive: > 30 µM.

Regarding `c1ccc2[nH]c(C3CC3)nc2c1`, the AC50 is inactive: > 30 µM.

Consider `O=[N+]([O-])c1cccnc1NCCc1ccccc1`, for which the AC50 is inactive: > 30 µM.

For `COCCNc1nnc(SCC(=O)NC2CCCCC2)s1`, the AC50 was inactive: > 30 µM.

Consider `N#Cc1c(N2CCOCC2)nc(N2CCCCC2)c2c1CCN(C1CCCCC1)C2`, for which the AC50 is inactive: > 30 µM.

Turning to `COc1ccccc1CC(=O)N1CCOCC1`, the AC50 was inactive: > 30 µM.

As for `CC(=O)c1cc(-c2ccc(F)cc2)n(CCC(=O)Nc2cccnc2)c1C`, the AC50 is inactive: > 30 µM.

As to `CCn1c(SCc2nc3sc(C(=O)O)c(C)c3c(=O)[nH]2)nc2ccccc21`, the AC50 is inactive: > 30 µM.
